For one substance, binding results are on record in article PMC6819556.

Chains of the proteins cited; added tags and fusions are not shown.
UniProt P35222: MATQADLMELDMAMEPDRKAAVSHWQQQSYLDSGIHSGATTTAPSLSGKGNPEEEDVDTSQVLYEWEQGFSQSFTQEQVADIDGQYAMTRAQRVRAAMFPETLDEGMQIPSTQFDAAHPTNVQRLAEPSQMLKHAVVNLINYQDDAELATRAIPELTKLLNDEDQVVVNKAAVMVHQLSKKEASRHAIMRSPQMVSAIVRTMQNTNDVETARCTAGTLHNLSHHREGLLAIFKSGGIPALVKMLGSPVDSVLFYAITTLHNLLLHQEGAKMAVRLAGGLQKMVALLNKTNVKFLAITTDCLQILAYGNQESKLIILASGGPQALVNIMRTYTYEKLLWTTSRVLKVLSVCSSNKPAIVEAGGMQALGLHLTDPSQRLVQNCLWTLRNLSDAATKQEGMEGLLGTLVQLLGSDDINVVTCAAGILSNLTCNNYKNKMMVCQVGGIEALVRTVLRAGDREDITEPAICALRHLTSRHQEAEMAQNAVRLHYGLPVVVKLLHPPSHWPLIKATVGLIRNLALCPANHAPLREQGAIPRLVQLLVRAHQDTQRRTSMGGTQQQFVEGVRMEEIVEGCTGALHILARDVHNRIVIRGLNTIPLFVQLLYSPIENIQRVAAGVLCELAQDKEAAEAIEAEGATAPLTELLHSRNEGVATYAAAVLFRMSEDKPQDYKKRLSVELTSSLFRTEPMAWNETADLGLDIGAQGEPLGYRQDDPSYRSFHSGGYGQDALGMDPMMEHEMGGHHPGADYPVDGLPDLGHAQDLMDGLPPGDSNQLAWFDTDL
UniProt Q9UJU2: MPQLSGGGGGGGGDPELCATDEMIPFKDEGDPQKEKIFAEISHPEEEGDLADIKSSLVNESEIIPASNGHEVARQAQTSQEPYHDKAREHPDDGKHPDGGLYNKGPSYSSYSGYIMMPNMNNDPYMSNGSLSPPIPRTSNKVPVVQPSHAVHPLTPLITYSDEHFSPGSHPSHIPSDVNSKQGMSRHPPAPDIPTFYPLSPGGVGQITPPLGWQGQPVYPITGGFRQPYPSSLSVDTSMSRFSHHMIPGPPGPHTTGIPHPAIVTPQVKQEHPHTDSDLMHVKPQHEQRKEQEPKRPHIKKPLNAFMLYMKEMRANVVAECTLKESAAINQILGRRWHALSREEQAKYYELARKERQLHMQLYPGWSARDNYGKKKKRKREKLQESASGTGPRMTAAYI
UniProt Q9Y265: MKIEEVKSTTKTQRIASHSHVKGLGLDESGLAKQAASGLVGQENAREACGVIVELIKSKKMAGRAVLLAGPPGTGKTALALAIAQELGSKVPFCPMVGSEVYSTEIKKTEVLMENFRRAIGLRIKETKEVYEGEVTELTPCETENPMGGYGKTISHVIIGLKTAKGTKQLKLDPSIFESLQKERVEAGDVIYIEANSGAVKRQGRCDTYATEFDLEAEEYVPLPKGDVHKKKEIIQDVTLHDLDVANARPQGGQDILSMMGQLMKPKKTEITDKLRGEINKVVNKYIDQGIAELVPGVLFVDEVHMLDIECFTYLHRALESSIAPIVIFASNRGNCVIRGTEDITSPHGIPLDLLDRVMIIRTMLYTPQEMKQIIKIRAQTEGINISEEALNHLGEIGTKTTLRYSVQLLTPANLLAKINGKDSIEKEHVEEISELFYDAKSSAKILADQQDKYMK

Assay [1] addresses β-catenin (human (endogenous in MG63)) (UniProt P35222). In words: co-IP; MG63 cells stably transfected (vector, pre-miR-370-3p, pre-miR-370-3p + RUVBL1; shcircMYO10, shcircMYO10 + miR-370-3p sponge or RUVBL1); RIPA lysates incubated with anti-β-catenin or anti-LEF1 at 4 °C overnight, Protein A/G agarose 2-4 h, western blot with anti-RUVBL1 from a different …. A general note: Immunoblotting shows a protein as a band on a membrane.

Assay [2] concerns the target lymphoid enhancer factor-1 (LEF1) (human (endogenous in MG63)) (UniProt Q9UJU2). Described as above.

No constants are given. Whether binding was seen depends on the method and setting. Binding seen in cells or lysates may run through a third protein. Some results given as binding are weak or reduced against the parent protein; the word gives no strength.

On to RUVBL1 (from UniProt Q9Y265 1-456), for which the binding result in assay [1] and in assay [2] was “binds” each time.
